Experimental data published in publication PMC5632675.
No constants are given. Whether binding was seen depends on the method and setting. Binding seen in cells or lysates may run through a third protein. Some entries that bind do so weakly or less than the wild type.

Chains of the proteins cited; added tags and fusions are not shown. Lines headed by an entry give the natural chain unless they say otherwise; changes in a name come on top.
UniProt Q9ERC5: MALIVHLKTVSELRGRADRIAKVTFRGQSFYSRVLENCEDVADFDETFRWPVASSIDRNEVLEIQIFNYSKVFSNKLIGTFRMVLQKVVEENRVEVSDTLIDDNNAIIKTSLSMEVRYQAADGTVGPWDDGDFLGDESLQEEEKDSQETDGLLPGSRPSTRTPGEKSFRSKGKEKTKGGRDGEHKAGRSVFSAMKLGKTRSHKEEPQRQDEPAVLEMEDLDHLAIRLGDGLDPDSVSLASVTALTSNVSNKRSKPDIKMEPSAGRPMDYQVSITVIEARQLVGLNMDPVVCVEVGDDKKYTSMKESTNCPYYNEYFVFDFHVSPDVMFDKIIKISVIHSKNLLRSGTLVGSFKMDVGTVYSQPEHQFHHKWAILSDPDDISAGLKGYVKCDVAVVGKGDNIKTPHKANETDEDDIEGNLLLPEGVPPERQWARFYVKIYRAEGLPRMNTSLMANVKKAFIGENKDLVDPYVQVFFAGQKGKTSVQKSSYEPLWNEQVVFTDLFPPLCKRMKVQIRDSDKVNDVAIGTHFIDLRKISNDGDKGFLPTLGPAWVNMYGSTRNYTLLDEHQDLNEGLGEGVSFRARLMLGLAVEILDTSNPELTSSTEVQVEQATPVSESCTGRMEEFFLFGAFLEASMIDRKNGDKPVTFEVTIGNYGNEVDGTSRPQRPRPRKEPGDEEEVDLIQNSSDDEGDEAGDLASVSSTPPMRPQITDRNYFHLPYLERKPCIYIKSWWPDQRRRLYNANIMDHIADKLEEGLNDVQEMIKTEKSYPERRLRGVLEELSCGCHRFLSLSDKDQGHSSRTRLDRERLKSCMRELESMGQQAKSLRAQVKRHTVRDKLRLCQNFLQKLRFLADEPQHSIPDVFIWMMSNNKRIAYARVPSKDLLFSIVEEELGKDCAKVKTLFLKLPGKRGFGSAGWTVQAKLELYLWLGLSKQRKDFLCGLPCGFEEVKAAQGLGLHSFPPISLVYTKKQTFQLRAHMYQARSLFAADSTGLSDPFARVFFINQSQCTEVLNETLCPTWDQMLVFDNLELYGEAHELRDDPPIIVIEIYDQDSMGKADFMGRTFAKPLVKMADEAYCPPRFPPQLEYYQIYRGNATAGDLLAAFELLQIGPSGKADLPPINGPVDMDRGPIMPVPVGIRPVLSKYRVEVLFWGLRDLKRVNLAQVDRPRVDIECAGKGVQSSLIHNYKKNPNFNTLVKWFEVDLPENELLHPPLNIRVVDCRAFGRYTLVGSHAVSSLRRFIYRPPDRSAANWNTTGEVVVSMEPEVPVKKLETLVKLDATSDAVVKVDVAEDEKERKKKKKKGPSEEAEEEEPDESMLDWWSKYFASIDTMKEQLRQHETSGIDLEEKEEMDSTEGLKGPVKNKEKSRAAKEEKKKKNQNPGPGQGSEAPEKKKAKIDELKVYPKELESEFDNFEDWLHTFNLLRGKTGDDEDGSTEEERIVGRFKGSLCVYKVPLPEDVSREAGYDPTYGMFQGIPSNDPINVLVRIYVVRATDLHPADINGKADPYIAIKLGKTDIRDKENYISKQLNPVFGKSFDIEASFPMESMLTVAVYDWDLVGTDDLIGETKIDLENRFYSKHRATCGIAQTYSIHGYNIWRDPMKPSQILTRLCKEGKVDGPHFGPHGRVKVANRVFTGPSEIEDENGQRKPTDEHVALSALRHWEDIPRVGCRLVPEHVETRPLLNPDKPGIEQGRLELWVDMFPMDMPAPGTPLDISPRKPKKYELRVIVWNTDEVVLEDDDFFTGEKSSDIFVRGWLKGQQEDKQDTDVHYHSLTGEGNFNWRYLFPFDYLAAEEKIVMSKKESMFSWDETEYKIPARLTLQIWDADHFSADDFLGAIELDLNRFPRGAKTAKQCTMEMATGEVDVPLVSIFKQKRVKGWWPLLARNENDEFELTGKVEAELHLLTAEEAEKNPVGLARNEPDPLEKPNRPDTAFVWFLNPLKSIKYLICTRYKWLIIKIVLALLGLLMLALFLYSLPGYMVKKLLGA
UniProt P15791: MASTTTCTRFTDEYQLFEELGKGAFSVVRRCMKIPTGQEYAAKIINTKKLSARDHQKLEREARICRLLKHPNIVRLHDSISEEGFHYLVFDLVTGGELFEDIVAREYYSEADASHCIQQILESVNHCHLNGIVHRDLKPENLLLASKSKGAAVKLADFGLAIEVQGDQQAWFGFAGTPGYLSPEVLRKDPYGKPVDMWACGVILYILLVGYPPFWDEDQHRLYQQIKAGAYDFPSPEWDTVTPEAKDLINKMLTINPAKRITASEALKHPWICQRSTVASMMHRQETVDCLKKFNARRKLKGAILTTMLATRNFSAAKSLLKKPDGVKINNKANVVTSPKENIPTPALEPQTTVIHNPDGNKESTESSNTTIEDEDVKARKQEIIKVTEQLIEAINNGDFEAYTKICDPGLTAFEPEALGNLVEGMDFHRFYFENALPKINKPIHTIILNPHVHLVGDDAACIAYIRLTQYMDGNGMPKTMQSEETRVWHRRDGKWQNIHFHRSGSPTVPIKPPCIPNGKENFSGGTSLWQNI

Target: otoferlin (rat inner hair cells) (rat (endogenous in rat organ of Corti)) (UniProt Q9ERC5)
Assay: proximity ligation; Duolink PLA on fixed, permeabilised P9-P11 rat organ of Corti explants; mouse anti-otoferlin antibody with a rabbit antibody to the partner; detects <40 nm proximity; controls with one primary antibody only

For “Ca2+/calmodulin-dependent serine/threonine kinase II delta (CaMKIIδ), rat inner hair cells (from UniProt P15791 1-533) (enzyme)”, the binding was “binds”.
